Measured values: US10183015B2, “Heterocyclic compounds and methods of use” (Medivation Technologies LLC, priority 2015, dated 2019)
At least one structure is not confirmed: it was looked up by name or label, or the drawing left a doubt.

Tests used:
[1] = tested on: 60% high fat Paigen diet induced NASH mouse model; test: Short-term (21 day) Paigen-diet NASH mouse model: plasma ALT, AST, triglycerides, cholesterol, free fatty acids; type: in vivo; details: for plasma ALT and AST increase: after 21 days of diet
Description: (§1) To investigate whether Compound #37 prevents the development of pathology associated with NASH and steatosis in an acute exploratory disease model, a study was conducted using a diet-induced acute liver steatosis model in mice. As described below, in this study, C57BL/6J mice were initiated on the Paigen diet and simultaneously treated with Compound #37 (5, 20, and 40 mg/kg/day) or vehicle control (20% HPβCD 10 mL/kg/day) by oral gavage for 21 days.
After acclimation, 8-week old male C57Bl/6J mice (Charles River) weighing about 25 g were randomized in 4 groups according their body weight and treated once daily around noon by oral gavage with vehicle, or Compound #37 at various for 21 days as follows: Group 1: vehicle-20% (2-hydroxypropyl)-β-cyclodextrin (HP-β-CD) (n=10); Group 2: Compound #37, 5 mg/kg (n=10) Group 3: Compound #37, 20 mg/kg (n=10) Group 4: Compound #37, 40 mg/kg (n=10). During the treatment period, body weight and food intake (measured over 24h) were measured 3 times per week and once a week, respectively. During the acclimation, all mice were fed a standard diet (Special Diets Services RM1 (E), product no. 801492) and tap water ad libitum. After the acclimation period, mice were fed until the end of the experiment with a 60% high fat Paigen diet (60 kcal % fat, 1.25% cholesterol, and 0.5% cholate; D11061901, Research Diet) and tap water ad libitum.
One hour after the last dosing (noon), blood was collected by retro-orbital bleeding (maximal volume on EDTA) under isoflurane anesthesia to measure plasma triglycerides, total cholesterol, non-esterified fatty acid, ALT and AST. Mice were then sacrificed by cervical dislocation, and livers were harvested and weighed. Liver samples from the same lobe were dissected, frozen, and analyzed as described below.
Data Analysis. Values are presented as mean±standard error of the mean (sem). To assess the compound effect, treated groups were compared to vehicle with a 1-way ANOVA+Dunnett's post-test. […] For RT-qPCR and score Kruskall-Wallis test was performed with Dunns post-test. For body weight evolution the treated groups were compared to vehicle with a 2-way ANOVA with Bonferroni post-test. For each test, a p<0.05 was considered significant.

[2] = tested on: 60% high fat Paigen diet induced NASH mouse model; test: Short-term Paigen-diet NASH mouse model: liver Oil Red O staining; details: in vivo
Description: as §1
After acclimation, 8-week old male C57Bl/6J mice (Charles River) weighing about 25 g were randomized in 4 groups according their body weight and treated once daily around noon by oral gavage with vehicle, or Compound #37 at various for 21 days as follows: Group 1: vehicle-20% (2-hydroxypropyl)-β-cyclodextrin (HP-β-CD) (n=10); Group 2: Compound #37, 5 mg/kg (n=10) Group 3: Compound #37, 20 mg/kg (n=10) Group 4: Compound #37, 40 mg/kg (n=10). During the treatment period, body weight and food intake (measured over 24h) were measured 3 times per week and once a week, respectively. […]
One 0.5 cm^3 piece of liver was frozen in OCT in isopentane and stored at −80° C. for neutral lipid coloration with quantification to evaluate accumulation of neutral lipids in the liver. […] Red Oil labeling was quantified (surface, density): the stained slides were analyzed using an image. […]

[3] = tested on: diet-induced NASH obese insulin resistant mice; test: DIN mouse model: liver Sirius Red staining (% labeling, collagen deposition); type: in vivo; details: 20 mg/kg/day, 10 weeks
Description: Male C57Bl/6J mice (8 weeks old) were housed in enriched ventilated cages (31×12.5×12.7 cm) throughout the experimental phase. Animals' cages litters were changed at least once a week. Animal were housed 5 per cage on inverted 12-hour light cycle (at 09:00 am lights off), 22±2° C. and 55±10% relative humidity. The acclimation period was 20 days. During the acclimation period, all mice were fed a standard diet (RM1 (E) 801492, SDS) and tap water ad libitum. After the acclimation period, mice were fed with the DIN diet (60% fat, cholesterol enriched) and fructose-enriched tap water ad libitum until the end of the experiment.
At 6 weeks of diet, mice were 4-hour fasted (09:00 am to 1:00 pm) and blood (150 μl/EDTA) was collected at 01:00 pm by retro-orbital bleeding under isoflurane anesthesia. Mice were then allocated in 2 homogenous groups (n=12/group) according to their plasma levels of ALT (average levels: 685U/L), AST (average levels: 627U/L) and HOMA-IR index (average value: 4.7), into 2 homogenous groups (see values at day 0 in Tables 15A and 15B ALT/AST and Tables 16A and 16B for HOMA-IR). Mice were then treated once daily by oral gavage with vehicle (Group 1) or Compound #37 at 20 mg/kg (Group 2) for 70 days.
Slides having a single hepatic lobe section stained with H&E and […] were digitized using a Nanozoomer from Hamamatsu. Sections were evaluated with knowledge of groups. […]

ob/ob mice = test: ob/ob mice: plasma triglycerides, non-esterified fatty acids, total cholesterol, insulin; type: in vivo, mouse; details: 8 weeks
Description: Groups of mice were either untreated (group 1) or treated for 8 weeks with vehicle (group 2), or with Compound #37 at 5 mg/kg (group 3), 10 mg/kg (group 4), or 20 mg/kg (group 5). Treatment was daily by oral gavage in vehicle (20% HPβCD). Values are presented as mean±standard error of the mean (sem). A t test was performed to compare the untreated group and the vehicle group. Then Compound #37-treated groups were compared to the vehicle-treated group with a 1-way ANOVA+Dunnett's post-test. […] For each test, a p<0.05 was considered significant. Of note, animal #39, group 1 was excluded from the statistical analysis, due to low values for all parameters measured. Some other values were considered as out-liners and excluded from the statistical analysis when the value was far below the mean minus 2 SD. Excluded values are marked with an asterisk in Tables 21-23.

## CC(C)Cc1cc(-c2nc(-c3ccc(NS(=O)(=O)C(F)(F)F)cc3Cl)cs2)ccn1 [Compound 37, N-(3-chloro-4-(2-(2-isobutylpyridin-4-yl)thiazol-4-yl)phenyl)-1,1,1-trifluoromethanesulfonamide]
[1]; 5 mg/kg
  plasma ALT and AST increase: tended to prevent
[1]; 20 mg/kg, after 21 days
  plasma free fatty acids: significantly decreased
  triglyceride plasma levels: tended to prevent
[1]; 20 mg/kg
  plasma ALT and AST increase: tended to prevent
[1]; after 21 days
  Plasma cholesterol levels: unchanged
[1]; dose-dependent manner, vs vehicle control
  plasma triglyceride and free fatty acid concentrations: lower
[2]
  accumulation of neutral lipids (Oil Red O): tended to prevent
[3]
  collagen fiber formation (Sirius Red staining): significant reduction
ob/ob mice; 10 mg/kg p.o. daily
  plasma triglycerides levels: tended to decrease
ob/ob mice; 5, 10, 20 mg/kg p.o. daily
  plasma non-esterified fatty acids levels: decreased dose-dependently
  plasma total cholesterol levels: decreased dose-dependently
ob/ob mice; tended to increase at 20 mg/kg
  plasma insulin levels: unchanged
